Taken from: PubChem BioAssay AID1259284 (Sanger Institute, 2017)
The whole screen tested 794 reagents; shown is a part drawn at random. Of all reagents, 16 (2%) were called active. 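Calls concern knock-down without drug only; drug synergy was judged apart, with scores above 0.15 taken as synergy.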 Further read-outs or replicates are left out here. The record does not give: the amount of reagent, the time to read-out.

- Test: 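Kinase knock-downs that cut colorectal cancer cell growth alone or with targeted drugs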 (primary screen)
- System: SW48 human colorectal cancer cells
- Reagent: siRNA pool against human genes
- Conditions: anchor drug BYL719 at 1 µM, cetuximab at 5 µg/ml or trametinib at 10 nM, or DMSO vehicle alone
- Read-out: 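Cell viability relative to non-targeting pool wells, replicate mean, with robust z-scores and drug synergy scores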
- Scale: robust z-score, no drug: higher = more cells survive knock-down
- Rule for the call: 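a knock-down is essential if viability without drug gives a robust z-score under -3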
- Calls: active = essential without drug; inactive = no change without drug

Knock-down of PCK1 (phosphoenolpyruvate carboxykinase 1) [SID135621257] resulted in: robust z-score, no drug -1.48; inactive. After knock-down of KSR2 (kinase suppressor of ras 2) [SID152149204] the results were robust z-score, no drug -2.76; inactive. After knock-down of PI4KA (phosphatidylinositol 4-kinase alpha) [SID135621251], the record shows robust z-score, no drug 0.426; inactive. NEK3 (NIMA related kinase 3) [SID152154962] scored robust z-score, no drug -0.0327; inactive. Depletion of PFKFB2 (6-phosphofructo-2-kinase/fructose-2,6-biphosphatase 2) [SID135621246] resulted in: robust z-score, no drug 0.426; inactive. Against MAP4K5 (mitogen-activated protein kinase kinase kinase kinase 5) [SID56478702], the entry reads robust z-score, no drug -3.18; active.

For PAPSS2 (3'-phosphoadenosine 5'-phosphosulfate synthase 2) [SID152148635] the deposit lists robust z-score, no drug 0.426; inactive. PRKCH (protein kinase C eta) [SID56478829] showed robust z-score, no drug 0.426; inactive. CDK1 (cyclin dependent kinase 1) [SID56478584] showed robust z-score, no drug 0.426; inactive. For AURKB (aurora kinase B) [SID152151121], the entry reads robust z-score, no drug -1.59; inactive. For PIK3R3 (phosphoinositide-3-kinase regulatory subunit 3) [SID56479284] the deposit lists robust z-score, no drug 0.426; inactive. After knock-down of PRKAG3 (protein kinase AMP-activated non-catalytic subunit gamma 3) [SID56479232], the screen gave robust z-score, no drug -2.28; inactive.

PXK (PX domain containing serine/threonine kinase like) [SID152149443] gave robust z-score, no drug 0.426; inactive. FGFR1 (fibroblast growth factor receptor 1) [SID135620619] showed robust z-score, no drug 0.426; inactive. Knock-down of DSTYK (dual serine/threonine and tyrosine protein kinase) [SID152147164] came out at: robust z-score, no drug 0.426; inactive. After knock-down of STK3 (serine/threonine kinase 3) [SID152146922], the record shows robust z-score, no drug 0.426; inactive. For NAGK (N-acetylglucosamine kinase) [SID135621243], the entry reads robust z-score, no drug -1.04; inactive. Silencing of PIK3R5 (phosphoinositide-3-kinase regulatory subunit 5) [SID152147687] came out at: robust z-score, no drug 0.426; inactive.

Knock-down of SGK1 (serum/glucocorticoid regulated kinase 1) [SID152156682] came out at: robust z-score, no drug 0.426; inactive. With knock-down of AK7 (adenylate kinase 7) [SID152153423], the screen gave robust z-score, no drug 0.426; inactive. After knock-down of STK38L (serine/threonine kinase 38 like) [SID152156064] the results were robust z-score, no drug -0.0748; inactive. Knock-down of HASPIN (histone H3 associated protein kinase) [SID152153141] came out at: robust z-score, no drug 0.426; inactive. Against LMTK1 (lemur tail kinase 1) [SID152151616], the values are robust z-score, no drug -0.229; inactive. RELA (RELA proto-oncogene, NF-kB subunit) [SID135620694] showed robust z-score, no drug 0.426; inactive.

Against CHEK2 (checkpoint kinase 2) [SID152153325] the deposit lists robust z-score, no drug 0.426; inactive. For CKMT1B (creatine kinase, mitochondrial 1B) [SID135621236] the deposit lists robust z-score, no drug 0.426; inactive. Knock-down of MAP4K4 (mitogen-activated protein kinase kinase kinase kinase 4) [SID56478747] resulted in: robust z-score, no drug -0.756; inactive. With knock-down of TRIB3 (tribbles pseudokinase 3) [SID56478723], the screen gave robust z-score, no drug 0.426; inactive.

Reprinted from above, 2 entries:
PFKFB2 (6-phosphofructo-2-kinase/fructose-2,6-biphosphatase 2) [SID135621246] | robust z-score, no drug: 0.426; Outcome: inactive
MAP4K5 (mitogen-activated protein kinase kinase kinase kinase 5) [SID56478702] | robust z-score, no drug: -3.18; Outcome: active
